Record: PubChem BioAssay AID686937 (Drosophila RNAi Screening Center, 2013)
In all, the deposit lists about 23,000 reagents; shown is an unselected part of those with a known target gene and a result. 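Reduced-secretion tags in replicate 1 do not always agree with the z-scores; no criterion for assigning the tags was given.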 A plus sign joins genes that one reagent is predicted to hit. Not all columns of the deposit are shown. Not stated in the record: the amount of reagent.

Aim: 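Knock-downs that reduce output of a secreted reporter enzyme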 (primary screen)
Cells: Drosophila S2 cells expressing secreted horseradish peroxidase
Reagent: long dsRNA against Drosophila genes
Duration: about 5.5 days (5 days dsRNA, then 12 h reporter induction)
Challenge: reporter expression induced after 5 days of dsRNA, read 12 h later; inducer not stated
Measurement: 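Chemiluminescent measurement of peroxidase in the medium 12 h after reporter induction, following 5 days of dsRNA, given as a z-score per plate; higher means more secretion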
Reading the numbers: z-score: higher = more reporter secreted into medium

gene knocked down | DRSC id | z-score, replicate 1 | z-score, replicate 2 | z-score, replicate 3 | z-score, replicate 4
CG3038 (GeneID 30970) | DRSC18618 | 0.21 | 0.12 | – | –
CG14635 (GeneID 31032) | DRSC17945 | 0.45 | 0.47 | – | –
2mit (GeneID 41616) | DRSC14194 | 0.59 | 0.19 | – | –
2mit (GeneID 41616) | DRSC15224 | 0.33 | 0.19 | – | –
Hers + amn | DRSC20306 | 0.17 | 0.45 | – | –
AkhR (GeneID 33942) | DRSC03329 | 0.34 | 0.17 | – | –
CG8908 (GeneID 37293) | DRSC07297 | 0.24 | 0.39 | – | –
tobi (GeneID 43072) | DRSC14435 | -0.9 | -0.14 | – | –
Polr3C (GeneID 41542) | DRSC14490 | -0.11 | -0.07 | – | –
Diedel (GeneID 43474) | DRSC14317 | 0.29 | 0.18 | – | –
CG6660 (GeneID 42708) | DRSC16087 | 0.14 | 0.33 | – | –
GstE14 (GeneID 36467) | DRSC06881 | 0.04 | 0.19 | – | –
CG32365 (GeneID 38876) | DRSC10040 | 0.33 | 0.07 | – | –
CG32365 (GeneID 38876) | DRSC10041 | -2.66 | -4.05 | – | –
CG32365 (GeneID 38876) | DRSC10977 | -3.16 | -2.31 | – | –
LManVI (GeneID 34206) | DRSC03224 | -0.68 | -0.27 | – | –
CG17154 (GeneID 39373) | DRSC10253 | 0.31 | 0.12 | – | –
CG42780 (GeneID 10178796) | DRSC17514 | 0.3 | 0.35 | – | –
CG8668 (GeneID 34107) | DRSC03101 | 0.17 | 0.13 | – | –
CG11444 (GeneID 31388) | DRSC17784 | 0.57 | 0.3 | – | –
CG13711 (GeneID 38576) | DRSC08320 | -0.48 | -0.52 | – | –
MED17 (GeneID 42175) | DRSC16889 | -4.26 | -3.94 | – | –
CG44836 (GeneID 39825) | DRSC09915 | 0.35 | 0.08 | – | –
RpL40 (GeneID 33629) | DRSC00782 | -3.95 | -2.87 | – | –
CG12224 (GeneID 41453) | DRSC14480 | -0.41 | 0.21 | – | –
Atac3 (GeneID 38055) | DRSC08579 | 0.29 | 0.32 | – | –
Wnt5 (GeneID 32838) | DRSC20300 | 0.02 | -0.38 | – | –
CG15431 (GeneID 33646) | DRSC00446 | -0.53 | -0.24 | – | –
dnd (GeneID 42580) | DRSC16064 | 0.29 | 0.47 | – | –
Fgop2 (GeneID 33971) | DRSC02016 | -0.6 | -0.81 | – | –
CG17202 (GeneID 41526) | DRSC15194 | -1.71 | 0.26 | – | –
Atg18b (GeneID 35396) | DRSC03108 | 0.17 | 0.01 | – | –
CG17219 (GeneID 33515) | DRSC00486 | 0.54 | 0.49 | – | –
kraken (GeneID 33265) | DRSC00824 | 0.04 | 0.17 | – | –
Muc30E (GeneID 2768931) | DRSC01101 | 0.41 | 0.3 | 0.37 | 0.26
Cib2 (GeneID 37363) | DRSC04535 | 0.43 | 0.26 | – | –
CG10214 (GeneID 42811) | DRSC14213 | 0.31 | 0.27 | – | –

The list goes on (6 carried over from the part before).
gene knocked down | DRSC id | z-score, replicate 1 | z-score, replicate 2 | z-score, replicate 3 | z-score, replicate 4
Atg18b (GeneID 35396) | DRSC03108 | 0.17 | 0.01 | – | –
CG17219 (GeneID 33515) | DRSC00486 | 0.54 | 0.49 | – | –
kraken (GeneID 33265) | DRSC00824 | 0.04 | 0.17 | – | –
Muc30E (GeneID 2768931) | DRSC01101 | 0.41 | 0.3 | 0.37 | 0.26
Cib2 (GeneID 37363) | DRSC04535 | 0.43 | 0.26 | – | –
CG10214 (GeneID 42811) | DRSC14213 | 0.31 | 0.27 | – | –
CG14448 (GeneID 40497) | DRSC11705 | 0.16 | 0.42 | – | –
LSm1 (GeneID 37413) | DRSC04458 | 0.36 | 0.56 | – | –
Lrch (GeneID 35041) | DRSC02996 | 0.03 | 0.15 | – | –
Alr (GeneID 32991) | DRSC19469 | 0.33 | 0.49 | – | –
Rac2 (GeneID 38831) | DRSC11262 | -0.64 | -0.11 | – | –
HP1Lcsd (GeneID 12798145) | DRSC03999 | 0.65 | – | – | –
TrpRS-m (GeneID 39989) | DRSC10848 | 0.42 | 0.45 | – | –
PpY-55A (GeneID 48532) | DRSC07513 | 0.28 | 0.3 | – | –
Setx (GeneID 38904) | DRSC10859 | 0.44 | -0.21 | – | –
PGAP5 (GeneID 34116) | DRSC03089 | 0.54 | 0.26 | – | –
CG32170 (GeneID 317894) | DRSC09452 | 0.29 | 0.42 | – | –
Ing5 (GeneID 34752) | DRSC03188 | 0.72 | 0.38 | – | –
CG2162 (GeneID 38360) | DRSC08557 | 0.78 | 0.64 | – | –
CG10887 (GeneID 42399) | DRSC14277 | 0.46 | 0.27 | -0.68 | 0.45
CG17005 (GeneID 34249) | DRSC02556 | 0.45 | 0.34 | – | –
CG31915 (GeneID 319025) | DRSC03000 | 0.24 | 0.2 | – | –
Muc12Ea (GeneID 32384) | DRSC19937 | -0.97 | 0.36 | 0.42 | 0.13
KrT95D (GeneID 42843) | DRSC16725 | 0.08 | 0.34 | – | –
Smr (GeneID 32225) | DRSC19495 | -3.17 | -2.55 | – | –
Smr (GeneID 32225) | DRSC20288 | -3.13 | -3.29 | – | –
